Test results reported in patent publication US7282515B2, “Derivatives of azaspiro compounds for the treatment of pain” (Schwarz Pharma AG, priority 2002, dated 2007).

System: NMRI mice
Experiment: formalin test (in-vivo test for analgesic effectiveness)
Conditions: 8 mg/kg, Average of 9 test series
Protocol: FIG. 1 and Table 1 show the reaction of test animals 20-45 minutes after the intraperitoneal administration of selected compounds. In each case, the maximum dosage selected for the concentration of azaspiro compounds was held, by a factor of about 2, below the toxic dose previously determined in the IRWIN test (Irwin, Psychopharmacologia 13 (1968) 222).
For the purpose of this patent application, the term “mean deviation of the pain reaction” refers to a relative deviation that is obtained when the average time of pain reaction of 10 animals treated with active agents in a test series as described in implementation Example #7 is compared, over a defined period (20-25′, 30-35′ or 40-45′ after formalin injection), with the average time of the pain reaction of 10 control animals treated with an excipient. A reduction in the pain reaction is expressed in negative percentage figures.
1. In-vivo Test for Determining the Analgesic Effectiveness of the Azaspiro Compounds
The test was conducted as described by Wheeler-Aceto (Psychopharmacology 104, 1991, 35).
NMRI mice having a weight of 20-25 g were kept under controlled conditions (22±2° C., 40-70% relative humidity). 25 μl of a 5% formocarbonyl solution was injected in the hind leg and the leg-licking frequency was then clocked for 5 minutes each at defined intervals (20, 30, 40 minutes).
Next, for the formalin test, the test substances were dissolved in a physiological salt solution with 0.5% sodium carboxymethyl cellulose and were each measured in 1-3 dosages that had been applied intraperitoneally 10 minutes before administration of formalin. The comparative reference value was provided by a control excipient (10 ml/kg).
The test was performed in blind fashion on 10 mice per test series. The evaluation was based on a comparison of the treated animals with control excipients at three different times. […] The statistical significance was determined using the Mann-Whitney U-test.

## CN1CC[C@]23c4c5ccc(O)c4O[C@H]2[C@@H](O)C=C[C@H]3[C@H]1C5 [Morphine, reference compound]
20–25′
  Mean deviation of the pain reaction compared to control (%) 20–25′ after administration of formalin: −87%
30–35′
  Mean deviation of the pain reaction compared to control (%) 30–35′ after administration of formalin: −95%
40–45′
  Mean deviation of the pain reaction compared to control (%) 40–45′ after administration of formalin: −88%
